From PubChem BioAssay AID540256 (National Center for Advancing Translational Sciences (NCATS), 2011)
The campaign covered roughly 300,000 compounds. About 3,700 (1.2%) were called active. This list was built around the results that the source calls inconclusive (neither active nor inactive); the mix of calls is not that of the screen. The call rests on the fitted dose curve; tested in HEK293 cells. Potencies beside an inconclusive call are fits to weak or partial responses and may not hold up.

Test: qHTS for Inhibitors of binding or entry into cells for Lassa Virus; further: nearly all actives have a fitted effect of over 50% in size
Settings: Lassa virus pseudotype entry inhibition, cell reporter; series mostly up to 37.9 µM
Potency means the concentration at half of the fitted maximal effect.

SMILES | Potency
C(=NN=C1c2ccccc2-c2ccccc21)c1ccc2c(c1)OCO2 | inactive
Cc1ccc(C(C(=O)NCc2ccco2)N(C(=O)Cn2nnc3ccccc32)c2ccccc2)o1 (centres undefined) | inconclusive: 0.501 µM [inhibitor, full curve]
COC(=O)c1ccc(COc2ccccc2[N+](=O)[O-])o1 | inactive
O=C(N/N=C/c1ccc(-c2cccc([N+](=O)[O-])c2)o1)c1ccc([N+](=O)[O-])cc1 | inactive
COc1ccc(F)cc1S(=O)(=O)NCCc1c(C)[nH]c2c(Cl)cccc12 | inconclusive: 10 µM [inhibitor, partial curve, poor fit]
COc1cc2c3cc1Oc1cc(ccc1O)C[C@@H]1c4c(cc(OC)c(O)c4Oc4ccc(cc4)C[C@H]3N(C)CC2)CCN1C | inconclusive: 9.2 µM [inhibitor, partial curve, poor fit]
O=c1c2ccccc2nc(-c2ccco2)n1/N=C/c1ccco1 | inactive
Cc1cccc(NS(=O)(=O)c2cc3c4c(c2)CCC(=O)N4CCC3)c1 | inconclusive: 35.5 µM [inhibitor, partial curve, poor fit]
COc1ccccc1N(CC(=O)N1CCCC1)S(=O)(=O)c1ccc(C)cc1 | inactive
CC1CCN(CCc2nc3cc(NC(=O)COc4ccc([N+](=O)[O-])cc4)ccc3n2C)CC1 | inconclusive: 20 µM [inhibitor, single point]
c1ccc(CN2CCC(N3CCN(Cc4ccc5c(c4)OCO5)CC3)CC2)cc1 | inconclusive: 35.5 µM [inhibitor, single point]
CC1C(c2cccs2)=[N+]([O-])C(C)(C(=O)c2cccs2)N1O (centres undefined) | inconclusive: 0.231 µM [inhibitor, single point]
COc1cccc(Cn2c(=S)[nH]c3ccc(N4CCOCC4)cc3c2=O)c1 | inconclusive: 13 µM [inhibitor, partial curve, poor fit]
COc1cc(NC(=O)NCc2ccco2)ccc1-c1ccc(NC(=O)NCc2ccco2)cc1OC | inconclusive: 6.31 µM [inhibitor, single point]
Cc1ccc(S(=O)(=O)Cn2nnnc2C(CC(C)C)N2CCN(C(=O)c3ccco3)CC2)cc1 (centres undefined) | inconclusive: 32.6 µM [inhibitor, single point]
O=C(NC1CCCCC1)OC[C@@H]1CSCCS(=O)(=O)N1 | inconclusive: 3.96 µM [inhibitor, single point]
S=C(Nc1ccccc1)N1CCN(c2ccccc2)CC1 | inconclusive: 35.5 µM [inhibitor, single point]
COc1ccc(Cl)cc1NS(=O)(=O)c1cn(C)nc1C | inconclusive: 3.98 µM [activator, full curve, poor fit]
COC(=O)c1ccc(NC(=S)NC(=O)c2c(Cl)cnn2C)cc1 | inactive
Cc1cc(S(=O)(=O)N2CCC3(CC2)OCCN3S(=O)(=O)c2cccs2)ccc1F | inconclusive: 35.5 µM [inhibitor, single point]
COc1ccc(Cl)cc1NC(=O)c1sc(-n2nc(C)c(Cc3ccccc3)c2C)nc1C | inactive
COC(=O)C1=C(Nc2ccccc2NC(=O)CCCC(=O)O)CSC1 | inconclusive: 7.08 µM [activator, partial curve]
COc1cc(C(=O)Oc2cccc(C=O)c2)cc(OC)c1OC | inactive

SMILES | Potency
CCC(C)NC(=O)c1cc2c(=O)n(CC)c3ccccc3c2s1 (centres undefined) | inconclusive: 14.1 µM [inhibitor, single point]
COc1ccccc1CNC(=O)c1ccc2c(c1)N(Cc1cccc(C)c1)C(=O)c1ccccc1S2(=O)=O | inconclusive: 6.31 µM [inhibitor, single point]
Cc1c(NC(=O)N2CCCCCC2)c(=O)n(-c2ccccc2)n1C | inactive
COc1ccc(NC(=O)Cn2nnc3sc4c(c3c2=O)CCC(C)C4)c(OC)c1 (centres undefined) | inconclusive: 35.5 µM [activator, single point]
Cc1cccc2sc(NNC(=O)c3ccc4c(c3)OCCO4)nc12 | inactive
CC1CC(C)CN(C(=O)c2cccc(S(=O)(=O)Nc3cc(C(F)(F)F)ccc3Cl)c2)C1 (centres undefined) | inconclusive: 11.2 µM [inhibitor, partial curve]
C/C(=N\NC(=O)CSCc1ccccc1Cl)c1cccc(NC(=O)c2ccccc2)c1 | inactive
N/C(=N\OC(=O)N1CCOCC1)c1ccc(Cl)cc1 | inconclusive: 22.4 µM [inhibitor, single point]
COc1ccc(-c2[nH]ncc2/C=N/NC(=O)c2cc(Br)ccc2O)c(OC)c1 | inconclusive: 1 µM [inhibitor, single point]
CCOc1ccc(-c2nn(CC(=O)NC3CCCCC3)c3c2cnc2ccc(C)cc23)cc1 | inactive
CC(C)CNC(=S)N1CCN(C(c2ccccc2)c2ccccc2)CC1 | inconclusive: 16.4 µM [inhibitor, single point]
O=C(CNC(=O)c1ccccc1)NCC(O)c1ccc([N+](=O)[O-])cc1 (centres undefined) | inactive
CCCn1c2ccccc2c2cnn(CC(=O)NCCc3ccc(OCC)cc3)c(=O)c21 | inactive
COc1ccc(-c2ocnc2C(=O)N2CCN(C(c3ccccc3)c3ccccc3)CC2)cc1 | inconclusive: 14.1 µM [inhibitor, partial curve, poor fit]
CCN(CC)CCN1C(=O)C(=O)/C(=C(/O)c2ccc(OC)cc2)C1c1ccco1 (centres undefined) | inactive
COc1cc(C(=O)Nc2cccc(S(=O)(=O)N3CCCC3)c2)c([N+](=O)[O-])cc1OC | inactive
Clc1ccccc1CONc1ncnc2nonc12 | inactive
Cn1cnc(S(=O)(=O)NC2CCN(Cc3ccccc3)CC2)c1 | inconclusive: 3.16 µM [activator, single point]
COC(=O)c1cc(NC(=O)CN(c2cccc(OC)c2)S(=O)(=O)c2ccccc2)ccc1Cl | active: 10 µM
N#Cc1sc(NCc2ccccc2)nc1Cl | inconclusive: 35.5 µM [activator, single point]
CCN(CC)c1nc(SCCOC(=O)Nc2ccccc2)nc(N(CC)CC)n1 | inconclusive: 23.1 µM [inhibitor, single point]
Cc1[nH]n(-c2ccccc2)c(=O)c1C=Nc1cccc2cccnc12 | inconclusive: 18.4 µM [inhibitor, single point]
Cc1ccc(S(=O)(=O)C2(C(=O)O)CCCC2)cc1C | inconclusive: 0.13 µM [inhibitor, partial curve, poor fit]

SMILES | Potency
O=C(CN1C(=O)CN=C(c2ccccc2)c2ccccc21)Nc1cccc(C(F)(F)F)c1 | inconclusive: 20 µM [inhibitor, single point]
O=C(NCCN1C(=O)S/C(=C\c2ccc(Cl)cc2)C1=O)c1ccc(F)c(S(=O)(=O)N2CCOCC2)c1 | inactive
COc1cccc(C2CC(c3cccc(NS(C)(=O)=O)c3)=NN2C(=O)c2ccccc2)c1OC (centres undefined) | active: 14.1 µM
C=CCSc1nnc(NC(=O)CN2C(=O)NC3(CCCC3)C2=O)s1 | inconclusive: 3.16 µM [inhibitor, single point]
CCOC(=O)CN1NC2(CCCCCCC2)NC1=S | inconclusive: 1 µM [inhibitor, single point]
Cc1ccccc1CNC(=O)c1ccc(CSCc2ccccc2)cc1 | inconclusive: 11.2 µM [inhibitor, single point]
Cc1ccc(NC(=O)CCS(=O)(=O)c2ccccc2)cc1S(=O)(=O)N1CCCCCC1 | inconclusive: 35.5 µM [inhibitor, partial curve, poor fit]
COc1ccc(NC(=O)N2c3ccccc3C(C)=CC2(C)C)cc1 | inactive
Fc1cccc(NC(=S)NNc2c3ccccc3nc3ccccc23)c1 | inconclusive: 35.5 µM [inhibitor, single point]
CCCC1=Nc2cc(C(=O)NC3CCC(C)CC3)ccc2Sc2ccccc21 (centres undefined) | inconclusive: 2.51 µM [inhibitor, full curve]
O=C(/C=C/Nc1ccc(Br)cc1F)c1ccccc1 | active: 1.58 µM
Cc1cc(Oc2ccc(C#N)cc2)nc(NCc2ccccc2)n1 | inactive
CCOc1cc(C(=O)N2CC(=O)Nc3ccc(C)cc3C2c2ccccc2)cc(OCC)c1OCC (centres undefined) | inactive
CN(C)c1cc2c(cc1NC(=O)c1ccccc1Cl)n(C)c(=O)n2C | inconclusive: 10 µM [inhibitor, partial curve, poor fit]
C#C[C@@]1(O)CCC2C3CCC4=C/C(=N/OCC(=O)NC(C(=O)O)C(C)O)CC[C@]4(C)C3CC[C@@]21C (some centres undefined) | inconclusive: 6.31 µM [activator, single point]
CC(=O)N1CCN(c2ccc(NC(=O)/C=C/c3ccccc3)cc2)CC1 | inconclusive: 39.8 µM [inhibitor, partial curve, poor fit]
Cc1ccccc1N1CCN(c2ccc(NC(=O)C3CCCCC3C(=O)O)cc2)CC1 (centres undefined) | inconclusive: 3.26 µM [inhibitor, single point]
CC(C)n1c(O)c(/C=C2\C=NN=C2c2ccccc2)sc1=S | inconclusive: 35.5 µM [inhibitor, single point]
CCOc1ccc(-c2nonc2NC(=O)c2oc3c(C)c(C)ccc3c2C)cc1OCC | inactive
CCN(CC)c1ccc2oc(=O)c(C)nc2c1 | inconclusive: 29.1 µM [inhibitor, single point]
Cc1ccc(NC(=O)CSc2nnc(CN3CCOCC3)n2-c2ccccc2)cc1 | inconclusive: 29.1 µM [inhibitor, single point]
Cc1nc2ccccc2c2oc(C(=O)NCc3ccccn3)cc12 | inactive
CCOC(=O)C1(CCCc2ccccc2)CCN(C(=O)C2CCCO2)CC1 (centres undefined) | inconclusive: 11.2 µM [inhibitor, partial curve, poor fit]

Rewritten tab-delimited: five of the compounds above
SMILES	Potency
COc1ccccc1N(CC(=O)N1CCCC1)S(=O)(=O)c1ccc(C)cc1	inactive
CC1CCN(CCc2nc3cc(NC(=O)COc4ccc([N+](=O)[O-])cc4)ccc3n2C)CC1	inconclusive: 20 µM [inhibitor, single point]
c1ccc(CN2CCC(N3CCN(Cc4ccc5c(c4)OCO5)CC3)CC2)cc1	inconclusive: 35.5 µM [inhibitor, single point]
CC1C(c2cccs2)=[N+]([O-])C(C)(C(=O)c2cccs2)N1O (centres undefined)	inconclusive: 0.231 µM [inhibitor, single point]
COc1cccc(Cn2c(=S)[nH]c3ccc(N4CCOCC4)cc3c2=O)c1	inconclusive: 13 µM [inhibitor, partial curve, poor fit]
